Experimental data reported in the supplement of paper PMC11348887.
Where a name gives a salt, the structure may show the parent alone. ± gives the standard deviation of the averaged measurements. Some of the results follow. Most values lie at the level of the controls, where differences are scatter.

Tests used:
Conditions in all cases: 5 µM; treatment: days 7-14 after plating, readout day 21
[1] = test system: hPSC-derived cortical neurons (WA09); assay: nucleus area z-score vs screen plate; higher = larger nuclei (more mature)
[2] = test system: hPSC-derived cortical neurons (WA09); assay: total neurite length per nucleus (MAP2) z-score; higher = more neurite growth
[3] = test system: hPSC-derived cortical neurons (WA09); assay: nucleus roundness z-score vs screen plate; higher = rounder nuclei (more mature)
[4] = test system: hPSC-derived cortical neurons (WA09); assay: KCl-induced FOS+/EGR-1+ double-positive nuclei fraction z-score (KCl minus unstimulated); higher = stronger activity-induced IEG response

Compound | nucleus area z-score [1] | total neurite length per nucleus (z-score) [2] | nucleus roundness z-score [3] | KCl-induced FOS+/EGR-1+ double-positive nuclei fraction z-score [4]
COc1cccc(-c2ccc(NC(=O)C3=C(C(=O)O)CCC3)c(F)c2)c1 [Vidofludimus] | 0.463 | 0.687 | 0.201 | 1.06
N#C[C@@H]1C[C@@H]2C[C@@H]2N1C(=O)[C@@H](N)C12CC3CC(CC(O)(C3)C1)C2 [Saxagliptin] | 1.22 | 0.21 | 0.129 | -0.0409
O=c1ncccn1[C@@H]1O[C@H](CO)[C@@H](O)[C@H]1O [Zebularine] | -0.107 | 1.74 | 0.482 | 0.302
CC1(C)S[C@@H]2[C@H](NC(=O)[C@H](N)c3ccc(O)cc3)C(=O)N2[C@H]1C(=O)O [Amoxicillin Sodium] | 2.11 | -0.105 | 0.191 | 0.949
NS(=O)(=O)c1cc2c(cc1Cl)N=C(CSCc1ccccc1)NS2(=O)=O [Benzthiazide] | -0.086 | 0.534 | -0.275 | 0.0898
S=c1nc[nH]c2nc[nH]c12 [6-Mercaptopurine (6-MP) Monohydrate] | -0.0811 | 0.297 | 0.0249 | 0.00615
COc1ccc2c(c1)CCC1C2CCC2(C)C(NCCCCCCN3C(=O)C=CC3=O)CCC12 (stereo not drawn) | 2.19 | -0.581 | 0.499 | -0.271
COC(=O)Nc1nc2cc(C(=O)c3ccccc3)ccc2[nH]1 [Mebendazole] | -3.05 | -0.756 | -1.06 | -0.33
COc1ccccc1Oc1c(NS(=O)(=O)c2ccc(C(C)(C)C)cc2)nc(-c2ncccn2)nc1OCCO [Bosentan] | -0.00743 | 0.00236 | 0.419 | -0.16
O=C(O)CCc1nc(-c2ccccc2)c(-c2ccccc2)o1 [Oxaprozin] | -0.165 | 0.126 | 0.647 | -0.372
Nc1ncnc2c1ncn2[C@@H]1O[C@H](CO)[C@@H](O)[C@H]1O [Adenosine] | 0.0202 | 0.325 | 0.0348 | 0.591
CCN(CC)C(=O)/C(C#N)=C/c1cc(O)c(O)c([N+](=O)[O-])c1 [Entacapone] | 0.491 | -0.123 | 0.00363 | -0.283
CC(C)(C(=O)NCC(F)(F)C(F)(F)F)C(=O)N[C@@H]1C(=O)Nc2ccccc2-c2ccccc21 | -1.84 | -0.819 | -0.0299 | -0.564
O=C1Nc2ccc(I)cc2/C1=C/c1cc(Br)c(O)c(Br)c1 | 1.45 | -0.28 | -0.675 | 1.71
O=c1cc(-c2ccc(O)c(O)c2)oc2cc(O)cc(O)c12 [Luteolin] | -0.807 | 1.11 | 0.396 | 2.28
CC[C@@H](C)Nc1cc(C(=O)N[C@H]2C[C@H]3CC[C@@H](C2)N3c2ccc(C(=O)C3CC3)cn2)c(C)cc1C(N)=O | 2.22 | 1.52 | -2.89 | 7.67
CCOc1cc(CC(=O)N[C@@H](CC(C)C)c2ccccc2N2CCCCC2)ccc1C(=O)O [Repaglinide] | -0.173 | 0.0498 | 0.288 | 1.72
Cn1c([N+](=O)[O-])cnc1COC(N)=O [Ronidazole] | -0.891 | 0.409 | -0.409 | -4.04
COc1cc2nc(N3CCN(C(=O)C4COc5ccccc5O4)CC3)nc(N)c2cc1OC (stereo not drawn) [Doxazosin Mesylate] | 0.487 | -0.509 | 0.484 | -0.626
Nc1c2c(nc3ccccc13)CCCC2 [Tacrine HCl] | -0.179 | 0.941 | 0.348 | 1.48
Cc1nc2c([nH]1)-c1ccccc1N(C(=O)c1ccc(NC(=O)c3ccccc3-c3ccccc3)cc1)CC2 [Conivaptan HCl] | 1.26 | -0.145 | -0.809 | -0.252

Compound | nucleus area z-score [1] | total neurite length per nucleus (z-score) [2] | nucleus roundness z-score [3] | KCl-induced FOS+/EGR-1+ double-positive nuclei fraction z-score [4]
COC(=O)C1=C(C)NC(C)=C(C(=O)OCCN(C)Cc2ccccc2)C1c1cccc([N+](=O)[O-])c1 (stereo not drawn) [Nicardipine HCl] | -2.44 | -1.45 | -0.868 | -0.355
Cc1c(N(C)C)c(=O)n(-c2ccccc2)n1C [Amidopyrine] | 0.429 | 0.146 | 0.416 | 1.43
O=C(Nc1ccccc1Br)N[C@@H]1CCN(c2ccc(C(F)(F)F)cn2)C1 | -0.178 | 0.208 | 0.893 | 0.515
CC[C@H]1OC(=O)[C@H](C)[C@@H](O[C@H]2C[C@@](C)(OC)[C@@H](O)[C@H](C)O2)[C@H](C)[C@@H](O[C@@H]2O[C@H](C)C[C@H](N(C)C)[C@H]2O)[C@](C)(O)C[C@@H](C)C(=O)[C@H](C)[C@@H](O)[C@]1(C)O [Erythromycin] | 0.834 ± 0.51 | -0.546 ± 0.27 | -0.223 ± 0.026 | 0.163 ± 1.8
O=C(O)c1ccccc1 [Benzoic Acid] | 1.44 | -0.284 | -0.937 | -0.0188
CO[C@H]1C[C@@H]2CC[C@@H](C)[C@@](O)(O2)C(=O)C(=O)N2CCCC[C@H]2C(=O)O[C@H]([C@H](C)C[C@@H]2CC[C@@H](O)[C@H](OC)C2)CC(=O)[C@H](C)/C=C(\C)[C@@H](O)[C@@H](OC)C(=O)[C@H](C)C[C@H](C)/C=C/C=C/C=C/1C [Rapamycin (Sirolimus)] | -2.1 | -1.02 | -2.21 | -0.724
CC12CC3CC(C)(C1)CC(N)(C3)C2 [Memantine HCl] | -0.476 | 2.13 | 0.449 | -1.49
OCCN1CCN(CCCN2c3ccccc3Sc3ccc(C(F)(F)F)cc32)CC1 [Fluphenazine dihydrochloride] | -2.6 | -3.04 | -3.05 | -1.15
CC(=O)[C@H]1CC[C@H]2[C@@H]3CC=C4C[C@@H](O)CC[C@]4(C)[C@H]3CC[C@]12C [Pregnenolone] | 0.909 | 0.325 | 0.843 | -0.483
Clc1ccc(C(Cn2ccnc2)OCc2csc3c(Cl)cccc23)c(Cl)c1 (stereo not drawn) [Sertaconazole nitrate] | -1.17 | -0.959 | -0.424 | -1.53
COc1c(N2CCNC(C)C2)c(F)cc2c(=O)c(C(=O)O)cn(C3CC3)c12 (stereo not drawn) [Gatifloxacin] | 0.229 | 1 | 1.3 | 1.88
CNC(CC(=O)O)C(=O)O [NMDA (N-Methyl-D-aspartic acid)] | 0.674 | 1.78 | 2.28 | 1.19
CN(C)CCC(c1ccc(Cl)cc1)c1ccccn1 (stereo not drawn) [Chlorpheniramine Maleate] | -0.241 | 0.525 | -0.075 | 0.356
Cc1c(C(=O)Nc2ccc(N3C[C@@H](C)O[C@@H](C)C3)nc2)cccc1-c1ccc(OC(F)(F)F)cc1 [LDE225 (NVP-LDE225_Erismodegib)] | 2.24 | -0.387 | -0.593 | 0.679
C[C@]12CC[C@@H]3c4ccc(O)cc4CC[C@H]3[C@@H]1CCC2=O [Estrone] | 0.511 | 0.865 | 1.4 | 0.954
C1COC(NC(C2CC2)C2CC2)=N1 [Rilmenidine Phosphate] | 0.0401 | -0.255 | 0.318 | -0.313
CCOC(=O)C1=C(COCCN)NC(C)=C(C(=O)OC)C1c1ccccc1Cl (stereo not drawn) [Amlodipine] | -2.83 | -0.987 | -0.97 | -0.831
COc1cc(Nc2ncc(F)c(Nc3ccc4c(n3)N(COP(=O)(O)O)C(=O)C(C)(C)O4)n2)cc(OC)c1OC [R788 (Fostamatinib) Disodium] | -0.418 | -0.0747 | -2.07 | -0.252
O=C(O)COCCN1CCN(C(c2ccccc2)c2ccc(Cl)cc2)CC1 (stereo not drawn) [Cetirizine DiHCl] | 0.22 | 0.911 | 0.218 | -0.248
O=C(O)c1ccc(-n2nc(-c3ccccc3O)nc2-c2ccccc2O)cc1 [Deferasirox] | -0.623 | 1.78 | 1.3 | 2.49
C[C@@H](N)[C@H]1CC[C@H](C(=O)Nc2ccncc2)CC1 | 2.06 | -0.262 | 0.114 | 0.0481

Random excerpt: 2 records from the list, in no set order.
Compound | nucleus area z-score [1] | total neurite length per nucleus (z-score) [2] | nucleus roundness z-score [3] | KCl-induced FOS+/EGR-1+ double-positive nuclei fraction z-score [4]
O=C(Nc1ccccc1Br)N[C@@H]1CCN(c2ccc(C(F)(F)F)cn2)C1 | -0.178 | 0.208 | 0.893 | 0.515
CC[C@@H](C)Nc1cc(C(=O)N[C@H]2C[C@H]3CC[C@@H](C2)N3c2ccc(C(=O)C3CC3)cn2)c(C)cc1C(N)=O | 2.22 | 1.52 | -2.89 | 7.67
